We go through two molecules from patent publication US20240141072A1.

For the assay, the target named is cynomolgus DLL3 (cynomolgus). The assay can be described thus: Octet BLI.

These are yes or no findings as the source states them, for the method shown. Some binding calls cover weakened binding; strength is not graded here.

B1: 1H012 anti-DLL3 trispecific protein (protein, not shown: large carriers)
chain: EVQLVESGGGLVQPGGSLTLSCVASGSTSSINAMGWYRRAPGKQRELVAGISSDGSKVYVDSVKGRFTISRDNAKNSVYLQMNSLRAEDTAVYYCYYFRTVSGSSMPYWGQGTLVTVSS
On to B1, for which the binding result is listed as “binds”.

B2: 4H011 anti-DLL3 trispecific protein (protein, not shown: large carriers)
chain: EVQLVESGGGLVQPGGSLTLSCAASGSSVSRLSMAWYRQAPGKKRELVAGISVDGSTDYIDSVKGRFTISRDNAKNSVYLQMNSLRAEDTAVYYCYAYRWTTRLTYWGQGTLVTVSS
As for B2, the binding result is reported as “binds”.
